Reference: publication doi:10.1101/2022.09.26.509487

Target: T1, AtWRKY40 DBD (Arabidopsis thaliana) (UniProt Q9SAH7)
T1 sequence (looked up, limits assumed): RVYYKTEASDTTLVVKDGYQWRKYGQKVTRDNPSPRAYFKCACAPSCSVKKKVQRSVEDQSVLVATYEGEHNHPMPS
Experiment: BLI

CGTAGGGTTAAGCTGT (double strand) [mutW-box C4T]
binding result: binds more weakly

For at least one entry, the source does not settle the construct or the ends of the probe. The comparison behind a weaker result is the experiment's own reference, which may not be listed here. Where a protein sequence is shown, tags need not be part of it.
